The values below come from the supplement of paper PMC9454738.

Some test systems named below: MDA-MB-231 GLI1; MDA-MB-231 Vector; MDA-MB-231 tGLI1; MDA-MB-231BRM GLI1; MDA-MB-231BRM Vector; MDA-MB-231BRM tGLI1.
What all share (assay): cell viability relative to vehicle (DMSO) control (fraction); higher = more viable cells (less growth inhibition)
Conditions in all cases: treatment time 48 h

This is one part of the list. This data set is noisy: repeats of one test often differ as much as different tests do.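 Assays used MDA-MB-231 triple-negative breast cancer cells and their brain-metastatic line MDA-MB-231BRM, stably carrying empty vector, full-length GLI1 or truncated tGLI1. After 48 h, viability was read with CellTiter-Blue and normalized to 1% DMSO vehicle. tGLI1 selectivity meant viability fell 20% more in tGLI1 cells than in vector and GLI1 cells.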

For the compound `O=C(NOCC(O)CO)c1cc(Br)c(F)c(F)c1Nc1ccc(I)cc1F` (centres undefined), the cell viability with MDA-MB-231 GLI1 (0.05 µM) is 1.19; in the assay on MDA-MB-231 GLI1 (0.5 µM), 1.24; in the assay with MDA-MB-231 GLI1 (5 µM) it was 0.732; in the assay on MDA-MB-231 Vector (0.05 µM), 1.53; with MDA-MB-231 Vector (0.5 µM) it was 0.898; in the assay with MDA-MB-231 Vector (5 µM) it was 0.614. Also, the cell viability in the assay with MDA-MB-231 tGLI1 (0.05 µM) was 0.98; in the assay on MDA-MB-231 tGLI1 (0.5 µM), 0.998; in the assay on MDA-MB-231 tGLI1 (5 µM), 0.643; with MDA-MB-231BRM GLI1 (0.05 µM), 0.659; in the assay on MDA-MB-231BRM GLI1 (0.5 µM) it was 1.25; in the assay with MDA-MB-231BRM GLI1 (5 µM), 0.966. Besides, the cell viability with MDA-MB-231BRM Vector (0.05 µM) was found to be 1.16; in the assay with MDA-MB-231BRM Vector (0.5 µM), 1.08; with MDA-MB-231BRM Vector (5 µM), 0.983; with MDA-MB-231BRM tGLI1 (0.05 µM), 0.999; with MDA-MB-231BRM tGLI1 (0.5 µM), 1.22; with MDA-MB-231BRM tGLI1 (5 µM), 0.892.
As to `C=CC(=O)Nc1cccc(Nc2nc(Nc3ccc(N4CCN(C(C)=O)CC4)cc3OC)ncc2C(F)(F)F)c1`, the cell viability in the assay on MDA-MB-231 GLI1 (0.05 µM) stood at 1.29; with MDA-MB-231 GLI1 (0.5 µM), 1.53; in the assay on MDA-MB-231 GLI1 (5 µM) it was 0.667; in the assay with MDA-MB-231 Vector (0.05 µM), 1.44; in the assay on MDA-MB-231 Vector (0.5 µM), 1.36; in the assay with MDA-MB-231 Vector (5 µM) it was 0.604. Moreover, the cell viability worked out at 1.48 in the assay on MDA-MB-231 tGLI1 (0.05 µM); 1.29 with MDA-MB-231 tGLI1 (0.5 µM); 0.775 in the assay on MDA-MB-231 tGLI1 (5 µM); 0.976 in the assay on MDA-MB-231BRM GLI1 (0.05 µM); 0.913 in the assay on MDA-MB-231BRM GLI1 (0.5 µM); 0.814 with MDA-MB-231BRM GLI1 (5 µM). Moreover, the cell viability with MDA-MB-231BRM Vector (0.05 µM) was 1.1; in the assay with MDA-MB-231BRM Vector (0.5 µM), 0.975; in the assay on MDA-MB-231BRM Vector (5 µM), 0.91; with MDA-MB-231BRM tGLI1 (0.05 µM), 0.968; in the assay on MDA-MB-231BRM tGLI1 (0.5 µM), 0.951; in the assay on MDA-MB-231BRM tGLI1 (5 µM), 0.684.
As to `S=C(NCc1ccc2c(c1)OCO2)N1CCN(c2ncnc3c2oc2ccccc23)CC1` [Amuvatinib (MP-470)], the cell viability in the assay on MDA-MB-231 GLI1 (0.05 µM) came out at 0.698; in the assay with MDA-MB-231 GLI1 (0.5 µM), 0.798; in the assay on MDA-MB-231 GLI1 (5 µM), 1.1; with MDA-MB-231 Vector (0.05 µM), 0.862; in the assay on MDA-MB-231 Vector (0.5 µM) it was 0.612; with MDA-MB-231 Vector (5 µM), 0.921. Further, the cell viability was 0.856 with MDA-MB-231 tGLI1 (0.05 µM); 1.04 with MDA-MB-231 tGLI1 (0.5 µM); 0.896 with MDA-MB-231 tGLI1 (5 µM); 1.22 in the assay with MDA-MB-231BRM GLI1 (0.05 µM); 1.14 with MDA-MB-231BRM GLI1 (0.5 µM); 0.951 in the assay with MDA-MB-231BRM GLI1 (5 µM). Besides, the cell viability in the assay with MDA-MB-231BRM Vector (0.05 µM) is 0.784; in the assay on MDA-MB-231BRM Vector (0.5 µM) it was 0.958; in the assay on MDA-MB-231BRM Vector (5 µM), 0.998; in the assay on MDA-MB-231BRM tGLI1 (0.05 µM) it was 1.05; with MDA-MB-231BRM tGLI1 (0.5 µM) it was 1.17; in the assay on MDA-MB-231BRM tGLI1 (5 µM), 0.816.
Turning to `COc1ccc(S(=O)(=O)N(C(C)=O)c2ccccc2/C=C/c2cc[n+]([O-])cc2)cc1`, the cell viability with MDA-MB-231 GLI1 (0.05 µM) turned out to be 1.27; in the assay on MDA-MB-231 GLI1 (0.5 µM), 0.254; with MDA-MB-231 GLI1 (5 µM), 0.0869; in the assay on MDA-MB-231 Vector (0.05 µM) it was 1.95; with MDA-MB-231 Vector (0.5 µM), 0.563; in the assay with MDA-MB-231 Vector (5 µM), 0.127. Besides, the cell viability in the assay with MDA-MB-231 tGLI1 (0.05 µM) was 1.26; in the assay on MDA-MB-231 tGLI1 (0.5 µM) it was 0.509; with MDA-MB-231 tGLI1 (5 µM), 0.156; in the assay with MDA-MB-231BRM GLI1 (0.05 µM), 0.73; with MDA-MB-231BRM GLI1 (0.5 µM), 1.38; in the assay on MDA-MB-231BRM GLI1 (5 µM), 0.602. The cell viability in the assay with MDA-MB-231BRM Vector (0.05 µM) was 1.06; with MDA-MB-231BRM Vector (0.5 µM), 1.2; with MDA-MB-231BRM Vector (5 µM), 0.718; in the assay with MDA-MB-231BRM tGLI1 (0.05 µM), 0.972; with MDA-MB-231BRM tGLI1 (0.5 µM), 1.34; in the assay on MDA-MB-231BRM tGLI1 (5 µM), 1.06.
With `COc1cccc2cc(-c3nc([C@H]4CC[C@H](C(=O)O)CC4)n4ncnc(N)c34)[nH]c12`, the cell viability with MDA-MB-231 GLI1 (0.05 µM) was 1.11; with MDA-MB-231 GLI1 (0.5 µM), 0.77; with MDA-MB-231 GLI1 (5 µM), 0.278; in the assay on MDA-MB-231 Vector (0.05 µM) it was 0.902; with MDA-MB-231 Vector (0.5 µM) it was 0.447; with MDA-MB-231 Vector (5 µM), 0.309. Also, the cell viability is 1.03 in the assay with MDA-MB-231 tGLI1 (0.05 µM); 0.726 with MDA-MB-231 tGLI1 (0.5 µM); 0.234 in the assay with MDA-MB-231 tGLI1 (5 µM); 1.04 in the assay with MDA-MB-231BRM GLI1 (0.05 µM); 0.985 in the assay with MDA-MB-231BRM GLI1 (0.5 µM); 0.732 in the assay on MDA-MB-231BRM GLI1 (5 µM). Further, the cell viability in the assay with MDA-MB-231BRM Vector (0.05 µM) is 1.04; in the assay with MDA-MB-231BRM Vector (0.5 µM), 1.02; in the assay with MDA-MB-231BRM Vector (5 µM), 0.726; with MDA-MB-231BRM tGLI1 (0.05 µM), 1.03; in the assay with MDA-MB-231BRM tGLI1 (0.5 µM) it was 1.01; in the assay on MDA-MB-231BRM tGLI1 (5 µM) it was 0.887.
Turning to `CCc1nc(-c2cccc(C)c2)c(-c2ccnc(NC(=O)c3ccccc3)c2)s1`, the cell viability in the assay with MDA-MB-231 GLI1 (0.05 µM) stood at 1.3; with MDA-MB-231 GLI1 (0.5 µM) it was 1.49; in the assay with MDA-MB-231 GLI1 (5 µM) it was 0.899; in the assay with MDA-MB-231 Vector (0.05 µM), 1.33; in the assay on MDA-MB-231 Vector (0.5 µM), 1.43; in the assay with MDA-MB-231 Vector (5 µM), 1.23. In addition, the cell viability with MDA-MB-231 tGLI1 (0.05 µM) was found to be 1.32; with MDA-MB-231 tGLI1 (0.5 µM), 1.41; in the assay on MDA-MB-231 tGLI1 (5 µM), 1.21; in the assay with MDA-MB-231BRM GLI1 (0.05 µM) it was 0.912; in the assay on MDA-MB-231BRM GLI1 (0.5 µM), 0.832; in the assay with MDA-MB-231BRM GLI1 (5 µM), 0.746. Moreover, the cell viability in the assay with MDA-MB-231BRM Vector (0.05 µM) was determined as 1.02; in the assay with MDA-MB-231BRM Vector (0.5 µM) it was 0.889; in the assay with MDA-MB-231BRM Vector (5 µM) it was 0.708; with MDA-MB-231BRM tGLI1 (0.05 µM), 0.955; in the assay on MDA-MB-231BRM tGLI1 (0.5 µM), 0.88; in the assay with MDA-MB-231BRM tGLI1 (5 µM), 0.695.
Turning to `Cc1ccc(C(=O)Nc2cccc(C(F)(F)F)c2)cc1Nc1nc(-c2cccnc2)nc2c1cnn2C`, the cell viability is 1.16 with MDA-MB-231 GLI1 (0.05 µM); 1.18 in the assay with MDA-MB-231 GLI1 (0.5 µM); 0.53 with MDA-MB-231 GLI1 (5 µM); 0.848 in the assay on MDA-MB-231 Vector (0.05 µM); 0.967 in the assay on MDA-MB-231 Vector (0.5 µM); 0.519 with MDA-MB-231 Vector (5 µM). Besides, the cell viability was 1.14 in the assay on MDA-MB-231 tGLI1 (0.05 µM); 1.11 in the assay with MDA-MB-231 tGLI1 (0.5 µM); 0.476 in the assay with MDA-MB-231 tGLI1 (5 µM); 0.767 in the assay on MDA-MB-231BRM GLI1 (0.05 µM); 0.598 in the assay with MDA-MB-231BRM GLI1 (0.5 µM); 0.77 in the assay on MDA-MB-231BRM GLI1 (5 µM). In addition, the cell viability is 0.641 with MDA-MB-231BRM Vector (0.05 µM); 0.94 in the assay on MDA-MB-231BRM Vector (0.5 µM); 0.856 in the assay on MDA-MB-231BRM Vector (5 µM); 0.572 in the assay on MDA-MB-231BRM tGLI1 (0.05 µM); 1.11 with MDA-MB-231BRM tGLI1 (0.5 µM); 0.774 in the assay on MDA-MB-231BRM tGLI1 (5 µM).
Turning to `Cc1cc(NC(=O)c2cccc(NC(=O)/C=C/CN(C)C)c2)ccc1Nc1nccc(-c2cccnc2)n1`, the cell viability came to 1.46 in the assay with MDA-MB-231 GLI1 (0.05 µM); 1.57 in the assay on MDA-MB-231 GLI1 (0.5 µM); 0.478 in the assay with MDA-MB-231 GLI1 (5 µM); 1.28 with MDA-MB-231 Vector (0.05 µM); 1.36 in the assay with MDA-MB-231 Vector (0.5 µM); 0.721 with MDA-MB-231 Vector (5 µM). The cell viability with MDA-MB-231 tGLI1 (0.05 µM) was 1.31; in the assay with MDA-MB-231 tGLI1 (0.5 µM), 1.37; with MDA-MB-231 tGLI1 (5 µM), 0.475; in the assay on MDA-MB-231BRM GLI1 (0.05 µM) it was 0.997; in the assay on MDA-MB-231BRM GLI1 (0.5 µM) it was 0.903; in the assay on MDA-MB-231BRM GLI1 (5 µM), 0.827. Also, the cell viability in the assay with MDA-MB-231BRM Vector (0.05 µM) was 1.05; in the assay on MDA-MB-231BRM Vector (0.5 µM) it was 0.948; in the assay with MDA-MB-231BRM Vector (5 µM) it was 0.808; in the assay with MDA-MB-231BRM tGLI1 (0.05 µM), 0.984; in the assay on MDA-MB-231BRM tGLI1 (0.5 µM), 0.904; in the assay on MDA-MB-231BRM tGLI1 (5 µM) it was 0.728.
